The supplement of paper PMC11006884
The list shows a part of the results, in another mix than the full data.

By UniProt entry, the sequences of proteins in these tests, tags left out. Where a name states a change or a piece, a line headed by the entry shows the natural chain unless it says otherwise.
UniProt Q9BWF3: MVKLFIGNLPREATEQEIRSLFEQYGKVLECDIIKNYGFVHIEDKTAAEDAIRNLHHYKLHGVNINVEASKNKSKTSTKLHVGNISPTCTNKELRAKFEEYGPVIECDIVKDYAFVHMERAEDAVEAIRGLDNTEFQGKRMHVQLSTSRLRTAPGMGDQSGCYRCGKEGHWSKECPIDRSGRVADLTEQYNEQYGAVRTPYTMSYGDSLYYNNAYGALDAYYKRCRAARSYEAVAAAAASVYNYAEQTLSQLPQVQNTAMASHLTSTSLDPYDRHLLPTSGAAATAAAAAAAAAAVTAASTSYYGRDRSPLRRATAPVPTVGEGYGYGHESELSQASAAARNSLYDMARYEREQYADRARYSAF
UniProt Q9BXJ9: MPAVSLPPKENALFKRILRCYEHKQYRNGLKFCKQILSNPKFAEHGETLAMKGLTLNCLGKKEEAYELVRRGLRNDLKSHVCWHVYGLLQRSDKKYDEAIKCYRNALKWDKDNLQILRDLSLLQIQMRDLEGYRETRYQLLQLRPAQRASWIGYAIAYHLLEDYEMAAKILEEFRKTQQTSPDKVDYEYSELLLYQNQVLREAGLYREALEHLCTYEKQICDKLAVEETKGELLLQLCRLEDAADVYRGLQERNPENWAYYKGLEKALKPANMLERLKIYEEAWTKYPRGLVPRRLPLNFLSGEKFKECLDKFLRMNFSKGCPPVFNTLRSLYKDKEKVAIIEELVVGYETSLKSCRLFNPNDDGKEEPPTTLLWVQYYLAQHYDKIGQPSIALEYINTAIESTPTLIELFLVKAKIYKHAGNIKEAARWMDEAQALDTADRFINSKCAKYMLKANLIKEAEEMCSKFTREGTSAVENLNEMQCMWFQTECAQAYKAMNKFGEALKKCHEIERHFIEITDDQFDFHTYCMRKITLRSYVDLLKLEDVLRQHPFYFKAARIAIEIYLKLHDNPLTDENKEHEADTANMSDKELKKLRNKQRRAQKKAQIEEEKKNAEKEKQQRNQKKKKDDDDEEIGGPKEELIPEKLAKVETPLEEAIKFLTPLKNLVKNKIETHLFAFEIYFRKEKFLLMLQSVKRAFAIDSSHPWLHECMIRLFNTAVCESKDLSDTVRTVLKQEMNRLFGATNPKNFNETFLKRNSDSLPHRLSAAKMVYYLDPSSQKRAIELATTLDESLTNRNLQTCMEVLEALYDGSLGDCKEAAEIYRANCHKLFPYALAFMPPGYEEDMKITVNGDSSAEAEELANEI
UniProt Q9BWD1: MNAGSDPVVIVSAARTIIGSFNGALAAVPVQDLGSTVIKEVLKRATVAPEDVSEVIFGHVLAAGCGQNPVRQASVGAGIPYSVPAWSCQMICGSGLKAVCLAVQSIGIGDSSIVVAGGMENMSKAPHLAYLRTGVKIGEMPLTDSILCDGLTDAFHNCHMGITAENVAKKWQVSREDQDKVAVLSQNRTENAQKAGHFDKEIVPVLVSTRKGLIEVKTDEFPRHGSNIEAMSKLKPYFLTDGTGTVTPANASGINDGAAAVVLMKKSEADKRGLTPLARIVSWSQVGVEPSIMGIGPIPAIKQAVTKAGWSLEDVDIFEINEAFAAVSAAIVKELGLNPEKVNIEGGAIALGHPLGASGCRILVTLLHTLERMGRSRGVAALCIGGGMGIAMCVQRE
UniProt Q9BVQ7: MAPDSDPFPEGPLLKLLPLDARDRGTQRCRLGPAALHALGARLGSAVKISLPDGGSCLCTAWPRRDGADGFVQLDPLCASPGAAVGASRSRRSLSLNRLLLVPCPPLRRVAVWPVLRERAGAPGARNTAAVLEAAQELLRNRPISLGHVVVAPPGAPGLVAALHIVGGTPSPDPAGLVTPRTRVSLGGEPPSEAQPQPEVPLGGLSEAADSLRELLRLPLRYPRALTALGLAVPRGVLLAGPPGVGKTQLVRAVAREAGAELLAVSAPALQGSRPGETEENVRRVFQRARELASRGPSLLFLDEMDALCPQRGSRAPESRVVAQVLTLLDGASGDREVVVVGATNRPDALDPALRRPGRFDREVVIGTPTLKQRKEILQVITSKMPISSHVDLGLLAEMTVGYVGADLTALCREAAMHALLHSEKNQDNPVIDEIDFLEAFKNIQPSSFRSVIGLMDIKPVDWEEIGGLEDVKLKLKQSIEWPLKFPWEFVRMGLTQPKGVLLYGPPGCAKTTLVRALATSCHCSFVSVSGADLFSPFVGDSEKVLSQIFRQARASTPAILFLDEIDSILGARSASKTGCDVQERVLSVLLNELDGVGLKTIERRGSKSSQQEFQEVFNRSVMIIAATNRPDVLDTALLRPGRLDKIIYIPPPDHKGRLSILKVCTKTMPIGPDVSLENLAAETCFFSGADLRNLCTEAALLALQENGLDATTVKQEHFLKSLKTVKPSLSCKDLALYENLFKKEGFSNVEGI
UniProt Q9BY44: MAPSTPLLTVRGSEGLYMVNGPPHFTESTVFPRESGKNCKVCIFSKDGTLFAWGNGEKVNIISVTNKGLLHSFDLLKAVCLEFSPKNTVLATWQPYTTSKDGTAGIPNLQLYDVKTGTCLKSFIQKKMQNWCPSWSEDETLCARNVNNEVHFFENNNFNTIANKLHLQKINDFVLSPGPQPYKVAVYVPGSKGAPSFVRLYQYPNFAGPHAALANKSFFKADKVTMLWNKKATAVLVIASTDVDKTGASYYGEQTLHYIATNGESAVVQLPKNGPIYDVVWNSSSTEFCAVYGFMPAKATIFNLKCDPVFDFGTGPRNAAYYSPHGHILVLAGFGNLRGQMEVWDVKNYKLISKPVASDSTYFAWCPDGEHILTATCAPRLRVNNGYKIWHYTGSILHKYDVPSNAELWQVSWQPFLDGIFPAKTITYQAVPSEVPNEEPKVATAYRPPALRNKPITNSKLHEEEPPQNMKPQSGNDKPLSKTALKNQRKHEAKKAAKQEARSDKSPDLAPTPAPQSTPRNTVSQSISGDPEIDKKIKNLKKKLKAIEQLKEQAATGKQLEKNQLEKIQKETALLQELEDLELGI
UniProt Q9C0J8: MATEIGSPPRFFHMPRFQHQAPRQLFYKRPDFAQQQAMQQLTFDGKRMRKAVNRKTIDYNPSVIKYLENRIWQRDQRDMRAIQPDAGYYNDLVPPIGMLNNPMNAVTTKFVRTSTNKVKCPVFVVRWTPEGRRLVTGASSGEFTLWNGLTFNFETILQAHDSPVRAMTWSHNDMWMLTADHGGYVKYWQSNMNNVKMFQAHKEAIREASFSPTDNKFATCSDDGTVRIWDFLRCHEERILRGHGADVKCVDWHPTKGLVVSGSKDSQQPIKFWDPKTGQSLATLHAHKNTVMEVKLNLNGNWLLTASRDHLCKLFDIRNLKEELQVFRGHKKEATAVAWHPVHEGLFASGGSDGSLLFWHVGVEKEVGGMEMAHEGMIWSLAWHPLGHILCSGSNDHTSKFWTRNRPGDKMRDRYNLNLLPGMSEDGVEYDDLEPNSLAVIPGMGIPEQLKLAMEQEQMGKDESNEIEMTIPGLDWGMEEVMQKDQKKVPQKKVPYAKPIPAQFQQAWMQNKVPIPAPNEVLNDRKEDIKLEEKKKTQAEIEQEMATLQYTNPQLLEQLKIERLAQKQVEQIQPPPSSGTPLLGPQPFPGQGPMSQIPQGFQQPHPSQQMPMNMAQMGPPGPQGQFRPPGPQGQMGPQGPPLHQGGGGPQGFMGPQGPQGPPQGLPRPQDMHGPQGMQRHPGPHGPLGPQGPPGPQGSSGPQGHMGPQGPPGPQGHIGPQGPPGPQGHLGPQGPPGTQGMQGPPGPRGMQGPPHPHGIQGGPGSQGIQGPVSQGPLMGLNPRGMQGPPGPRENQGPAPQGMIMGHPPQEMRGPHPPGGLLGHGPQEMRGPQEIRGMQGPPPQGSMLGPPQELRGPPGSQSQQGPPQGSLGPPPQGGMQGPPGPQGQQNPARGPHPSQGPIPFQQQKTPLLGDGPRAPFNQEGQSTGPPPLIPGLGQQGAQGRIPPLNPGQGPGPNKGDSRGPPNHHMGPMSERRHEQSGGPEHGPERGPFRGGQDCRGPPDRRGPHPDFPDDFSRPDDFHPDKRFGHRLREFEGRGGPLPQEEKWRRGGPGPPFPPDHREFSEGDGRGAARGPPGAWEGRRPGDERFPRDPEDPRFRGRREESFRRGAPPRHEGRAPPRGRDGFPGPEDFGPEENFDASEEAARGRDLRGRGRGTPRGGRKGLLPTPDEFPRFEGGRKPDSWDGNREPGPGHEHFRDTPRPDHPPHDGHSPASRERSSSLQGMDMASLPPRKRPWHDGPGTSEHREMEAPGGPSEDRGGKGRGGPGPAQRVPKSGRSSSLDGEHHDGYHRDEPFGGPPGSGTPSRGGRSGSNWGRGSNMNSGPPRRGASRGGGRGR
UniProt Q9BZL6: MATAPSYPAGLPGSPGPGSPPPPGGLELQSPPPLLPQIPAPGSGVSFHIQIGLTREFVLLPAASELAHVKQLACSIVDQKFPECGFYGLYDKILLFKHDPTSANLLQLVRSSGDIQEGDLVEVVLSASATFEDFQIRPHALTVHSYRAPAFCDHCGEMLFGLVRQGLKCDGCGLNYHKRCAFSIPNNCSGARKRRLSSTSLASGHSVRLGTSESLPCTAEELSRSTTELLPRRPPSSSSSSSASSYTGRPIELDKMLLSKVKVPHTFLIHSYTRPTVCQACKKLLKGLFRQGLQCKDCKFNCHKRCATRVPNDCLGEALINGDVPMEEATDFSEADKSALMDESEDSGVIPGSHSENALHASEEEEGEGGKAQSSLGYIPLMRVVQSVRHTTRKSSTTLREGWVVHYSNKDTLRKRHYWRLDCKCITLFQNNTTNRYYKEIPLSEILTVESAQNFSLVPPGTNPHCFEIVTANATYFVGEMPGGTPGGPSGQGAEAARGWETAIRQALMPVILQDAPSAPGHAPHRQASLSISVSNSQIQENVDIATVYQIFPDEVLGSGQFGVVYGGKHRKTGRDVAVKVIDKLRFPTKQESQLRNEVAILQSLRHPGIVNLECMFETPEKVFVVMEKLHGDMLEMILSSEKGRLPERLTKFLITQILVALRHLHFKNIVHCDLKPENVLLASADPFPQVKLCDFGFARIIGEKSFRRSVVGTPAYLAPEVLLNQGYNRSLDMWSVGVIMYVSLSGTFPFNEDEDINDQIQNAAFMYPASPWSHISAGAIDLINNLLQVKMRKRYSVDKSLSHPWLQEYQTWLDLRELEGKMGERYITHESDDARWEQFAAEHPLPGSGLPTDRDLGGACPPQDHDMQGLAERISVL
UniProt Q9BVJ6: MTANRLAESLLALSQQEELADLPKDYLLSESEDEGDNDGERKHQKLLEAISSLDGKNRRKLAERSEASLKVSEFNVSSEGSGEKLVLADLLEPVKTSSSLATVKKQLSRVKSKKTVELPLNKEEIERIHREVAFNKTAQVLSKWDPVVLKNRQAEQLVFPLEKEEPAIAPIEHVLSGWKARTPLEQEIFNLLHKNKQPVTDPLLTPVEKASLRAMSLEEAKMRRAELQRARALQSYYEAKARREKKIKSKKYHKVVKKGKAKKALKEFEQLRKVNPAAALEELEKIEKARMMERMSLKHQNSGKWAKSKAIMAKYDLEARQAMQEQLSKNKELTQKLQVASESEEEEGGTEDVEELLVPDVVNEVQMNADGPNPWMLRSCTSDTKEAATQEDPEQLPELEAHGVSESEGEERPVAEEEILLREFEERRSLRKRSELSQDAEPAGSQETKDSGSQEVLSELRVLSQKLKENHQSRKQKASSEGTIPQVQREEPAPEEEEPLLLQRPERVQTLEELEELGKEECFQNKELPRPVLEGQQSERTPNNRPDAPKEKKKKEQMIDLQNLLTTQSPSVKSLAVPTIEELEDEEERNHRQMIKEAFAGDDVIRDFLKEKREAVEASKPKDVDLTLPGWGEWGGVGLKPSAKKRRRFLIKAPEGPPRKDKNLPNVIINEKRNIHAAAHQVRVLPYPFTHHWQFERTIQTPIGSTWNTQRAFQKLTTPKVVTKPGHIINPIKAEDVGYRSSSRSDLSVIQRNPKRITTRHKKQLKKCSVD
UniProt Q9BRS8: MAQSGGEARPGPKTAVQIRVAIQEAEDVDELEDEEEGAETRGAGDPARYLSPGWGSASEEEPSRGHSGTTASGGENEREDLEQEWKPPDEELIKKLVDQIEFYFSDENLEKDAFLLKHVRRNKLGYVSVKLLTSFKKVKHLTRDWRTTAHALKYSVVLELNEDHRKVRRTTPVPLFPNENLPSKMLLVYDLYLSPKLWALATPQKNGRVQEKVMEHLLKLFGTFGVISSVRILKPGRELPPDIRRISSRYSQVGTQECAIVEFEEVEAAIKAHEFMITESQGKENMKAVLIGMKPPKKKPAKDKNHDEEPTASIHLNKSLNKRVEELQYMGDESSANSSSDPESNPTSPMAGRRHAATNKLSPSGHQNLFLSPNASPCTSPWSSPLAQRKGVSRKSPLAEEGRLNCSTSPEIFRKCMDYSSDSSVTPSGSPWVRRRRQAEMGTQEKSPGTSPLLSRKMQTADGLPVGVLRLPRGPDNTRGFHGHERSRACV

These targets were tested with COC(=O)C#Cc1ccccc1 [methyl 3-phenylpropiolate] (assay: log2 ratio of iodoacetamide-alkyne labeling of the cysteine site, DMSO over compound (competition); higher = stronger covalent engagement of the cysteine by the compound, active = 1 or more). Details: 500 µM; treatment time 1 h; system: HEK293T cell lysate.
Procedure, shortened: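 Electrophile (500 µM) or vehicle was added to HEK293T lysate (2 mg/mL) for 1 h at ambient temperature before iodoacetamide alkyne labelling (1 h) and click coupling to sCIP-TMT reagents. After pooling, overnight trypsin digestion at 37 °C, streptavidin enrichment and acid elution, peptides were measured by Orbitrap Eclipse LC-MS/MS with FAIMS and quantified in FragPipe. Each cysteine's log2 competition ratio compares mean control-channel with mean compound-channel reporter intensity, control over compound. Data came from duplicate channels across three replicates, excluding cysteines quantified in only one replicate.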
With UniProt Q9BQP7_C79 the “log2 ratio of iodoacetamide-alkyne labeling” value (shortened to “log2 ratio”) was inactive: 0.323.
With RBM4 C31 (UniProt Q9BWF3) the “log2 ratio” value was inactive: 0.113.
UniProt Q9H1B7_C504 was tested, and the “log2 ratio” value was inactive: 0.525.
For UPF3B C453 (UniProt Q9BZI7), the “log2 ratio” value was inactive: 0.248.
With UniProt Q9BXJ9_C82 the “log2 ratio” value was inactive: 0.159.
MRPL1 C279 (UniProt Q9BYD6) was tested, and the “log2 ratio” value was inactive: 0.338.
In the case of UTP23 C207 (UniProt Q9BRU9), the “log2 ratio” value is reported as inactive: 0.409.
In the case of SETD2 C1471 (UniProt Q9BYW2), the “log2 ratio” value is reported as inactive: 0.322.
For LZTS2 C376 (UniProt Q9BRK4), the “log2 ratio” value was inactive: 0.634.
For POLDIP3 C303 (UniProt Q9BY77), the “log2 ratio” value was inactive: -0.174.
In the case of NAT10 C486 (UniProt Q9H0A0), the “log2 ratio” value is reported as inactive: 0.0616.
PAIP1 C222 (UniProt Q9H074) was tested, and the “log2 ratio” value was inactive: 0.368.
HNRNPUL1 C487 (UniProt Q9BUJ2) was tested, and the “log2 ratio” value was inactive: -0.108.
UniProt Q9BXP5_C412 was tested, and the “log2 ratio” value was inactive: 0.176.
For ACAT2 C92 (UniProt Q9BWD1), the “log2 ratio” value was inactive: -0.0698.
For CLPB C572 (UniProt Q9H078), the “log2 ratio” value was inactive: 0.402.
C17orf80 C164 (UniProt Q9BSJ5) was tested, and the “log2 ratio” value was inactive: 0.161.
DIDO1 C498 (UniProt Q9BTC0) was tested, and the “log2 ratio” value was inactive: 0.348.
For ASPSCR1 C224 (UniProt Q9BZE9), the “log2 ratio” value was active: 1.02.
SPATA5L1 C309 (UniProt Q9BVQ7) was tested, and the “log2 ratio” value was active: 1.11.
In the case of GINS3 C188 (UniProt Q9BRX5), the “log2 ratio” value is reported as inactive: 0.255.
In the case of EIF2A C306 (UniProt Q9BY44), the “log2 ratio” value is reported as inactive: 0.165.
With WDR33 C220 (UniProt Q9C0J8) the “log2 ratio” value was inactive: 0.38.
With SLK C1153 (UniProt Q9H2G2) the “log2 ratio” value was inactive: 0.388.
For HNRNPUL1 C532 (UniProt Q9BUJ2), the “log2 ratio” value was inactive: 0.22.
With ACAT2 C148 (UniProt Q9BWD1) the “log2 ratio” value was inactive: -0.138.
In the case of ACAT2 C158 (UniProt Q9BWD1), the “log2 ratio” value is reported as inactive: -0.0336.
In the case of UBE2O C244 (UniProt Q9C0C9), the “log2 ratio” value is reported as inactive: 0.18.
UniProt Q9BXJ9_C721 was tested, and the “log2 ratio” value was inactive: 0.498.
UniProt Q9BXJ9_C817 was tested, and the “log2 ratio” value was inactive: -0.134.
With UniProt Q9BXP5_C490 the “log2 ratio” value was inactive: 0.11.
With PRKD2 C861 (UniProt Q9BZL6) the “log2 ratio” value was inactive: 0.258.
In the case of QRSL1 C512 (UniProt Q9H0R6), the “log2 ratio” value is reported as inactive: 0.615.
UniProt Q9BXJ9_C465 was tested, and the “log2 ratio” value was inactive: 0.109.
With UTP14A C522 (UniProt Q9BVJ6) the “log2 ratio” value was inactive: 0.365.
For UniProt Q9GZP4_C14, the “log2 ratio” value was inactive: 0.308.
In the case of UniProt Q9BRS8_C416, the “log2 ratio” value is reported as inactive: 0.832.
With ADPGK C40 (UniProt Q9BRR6) the “log2 ratio” value was inactive: 0.1.
